According to the supplement of paper PMC10849652:
The list shows a part of the results.

Sequences of proteins named here, by UniProt entry; tags and fusion partners are left off. A change or cut given only in a name is not applied to a line headed by its entry.
UniProt P27695, whole entry, looked up: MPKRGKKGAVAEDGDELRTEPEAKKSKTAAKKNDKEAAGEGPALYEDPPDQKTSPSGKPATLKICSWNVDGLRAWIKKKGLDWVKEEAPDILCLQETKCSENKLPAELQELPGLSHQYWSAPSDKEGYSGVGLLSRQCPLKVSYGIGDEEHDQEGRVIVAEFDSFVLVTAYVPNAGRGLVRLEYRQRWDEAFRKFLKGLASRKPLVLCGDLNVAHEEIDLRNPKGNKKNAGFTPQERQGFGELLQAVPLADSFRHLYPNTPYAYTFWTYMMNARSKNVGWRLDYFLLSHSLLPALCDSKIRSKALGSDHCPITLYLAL
UniProt Q8N5I2: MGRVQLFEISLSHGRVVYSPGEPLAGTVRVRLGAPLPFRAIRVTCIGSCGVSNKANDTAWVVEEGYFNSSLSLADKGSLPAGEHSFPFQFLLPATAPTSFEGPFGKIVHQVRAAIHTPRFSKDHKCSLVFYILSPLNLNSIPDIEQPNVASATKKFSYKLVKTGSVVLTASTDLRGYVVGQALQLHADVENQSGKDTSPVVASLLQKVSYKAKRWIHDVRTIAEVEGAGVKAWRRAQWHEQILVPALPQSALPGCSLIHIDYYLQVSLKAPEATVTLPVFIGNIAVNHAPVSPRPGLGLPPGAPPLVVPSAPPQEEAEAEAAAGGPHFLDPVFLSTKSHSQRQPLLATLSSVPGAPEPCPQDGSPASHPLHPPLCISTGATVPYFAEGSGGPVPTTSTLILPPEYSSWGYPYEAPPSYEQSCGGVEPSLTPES
UniProt P04114: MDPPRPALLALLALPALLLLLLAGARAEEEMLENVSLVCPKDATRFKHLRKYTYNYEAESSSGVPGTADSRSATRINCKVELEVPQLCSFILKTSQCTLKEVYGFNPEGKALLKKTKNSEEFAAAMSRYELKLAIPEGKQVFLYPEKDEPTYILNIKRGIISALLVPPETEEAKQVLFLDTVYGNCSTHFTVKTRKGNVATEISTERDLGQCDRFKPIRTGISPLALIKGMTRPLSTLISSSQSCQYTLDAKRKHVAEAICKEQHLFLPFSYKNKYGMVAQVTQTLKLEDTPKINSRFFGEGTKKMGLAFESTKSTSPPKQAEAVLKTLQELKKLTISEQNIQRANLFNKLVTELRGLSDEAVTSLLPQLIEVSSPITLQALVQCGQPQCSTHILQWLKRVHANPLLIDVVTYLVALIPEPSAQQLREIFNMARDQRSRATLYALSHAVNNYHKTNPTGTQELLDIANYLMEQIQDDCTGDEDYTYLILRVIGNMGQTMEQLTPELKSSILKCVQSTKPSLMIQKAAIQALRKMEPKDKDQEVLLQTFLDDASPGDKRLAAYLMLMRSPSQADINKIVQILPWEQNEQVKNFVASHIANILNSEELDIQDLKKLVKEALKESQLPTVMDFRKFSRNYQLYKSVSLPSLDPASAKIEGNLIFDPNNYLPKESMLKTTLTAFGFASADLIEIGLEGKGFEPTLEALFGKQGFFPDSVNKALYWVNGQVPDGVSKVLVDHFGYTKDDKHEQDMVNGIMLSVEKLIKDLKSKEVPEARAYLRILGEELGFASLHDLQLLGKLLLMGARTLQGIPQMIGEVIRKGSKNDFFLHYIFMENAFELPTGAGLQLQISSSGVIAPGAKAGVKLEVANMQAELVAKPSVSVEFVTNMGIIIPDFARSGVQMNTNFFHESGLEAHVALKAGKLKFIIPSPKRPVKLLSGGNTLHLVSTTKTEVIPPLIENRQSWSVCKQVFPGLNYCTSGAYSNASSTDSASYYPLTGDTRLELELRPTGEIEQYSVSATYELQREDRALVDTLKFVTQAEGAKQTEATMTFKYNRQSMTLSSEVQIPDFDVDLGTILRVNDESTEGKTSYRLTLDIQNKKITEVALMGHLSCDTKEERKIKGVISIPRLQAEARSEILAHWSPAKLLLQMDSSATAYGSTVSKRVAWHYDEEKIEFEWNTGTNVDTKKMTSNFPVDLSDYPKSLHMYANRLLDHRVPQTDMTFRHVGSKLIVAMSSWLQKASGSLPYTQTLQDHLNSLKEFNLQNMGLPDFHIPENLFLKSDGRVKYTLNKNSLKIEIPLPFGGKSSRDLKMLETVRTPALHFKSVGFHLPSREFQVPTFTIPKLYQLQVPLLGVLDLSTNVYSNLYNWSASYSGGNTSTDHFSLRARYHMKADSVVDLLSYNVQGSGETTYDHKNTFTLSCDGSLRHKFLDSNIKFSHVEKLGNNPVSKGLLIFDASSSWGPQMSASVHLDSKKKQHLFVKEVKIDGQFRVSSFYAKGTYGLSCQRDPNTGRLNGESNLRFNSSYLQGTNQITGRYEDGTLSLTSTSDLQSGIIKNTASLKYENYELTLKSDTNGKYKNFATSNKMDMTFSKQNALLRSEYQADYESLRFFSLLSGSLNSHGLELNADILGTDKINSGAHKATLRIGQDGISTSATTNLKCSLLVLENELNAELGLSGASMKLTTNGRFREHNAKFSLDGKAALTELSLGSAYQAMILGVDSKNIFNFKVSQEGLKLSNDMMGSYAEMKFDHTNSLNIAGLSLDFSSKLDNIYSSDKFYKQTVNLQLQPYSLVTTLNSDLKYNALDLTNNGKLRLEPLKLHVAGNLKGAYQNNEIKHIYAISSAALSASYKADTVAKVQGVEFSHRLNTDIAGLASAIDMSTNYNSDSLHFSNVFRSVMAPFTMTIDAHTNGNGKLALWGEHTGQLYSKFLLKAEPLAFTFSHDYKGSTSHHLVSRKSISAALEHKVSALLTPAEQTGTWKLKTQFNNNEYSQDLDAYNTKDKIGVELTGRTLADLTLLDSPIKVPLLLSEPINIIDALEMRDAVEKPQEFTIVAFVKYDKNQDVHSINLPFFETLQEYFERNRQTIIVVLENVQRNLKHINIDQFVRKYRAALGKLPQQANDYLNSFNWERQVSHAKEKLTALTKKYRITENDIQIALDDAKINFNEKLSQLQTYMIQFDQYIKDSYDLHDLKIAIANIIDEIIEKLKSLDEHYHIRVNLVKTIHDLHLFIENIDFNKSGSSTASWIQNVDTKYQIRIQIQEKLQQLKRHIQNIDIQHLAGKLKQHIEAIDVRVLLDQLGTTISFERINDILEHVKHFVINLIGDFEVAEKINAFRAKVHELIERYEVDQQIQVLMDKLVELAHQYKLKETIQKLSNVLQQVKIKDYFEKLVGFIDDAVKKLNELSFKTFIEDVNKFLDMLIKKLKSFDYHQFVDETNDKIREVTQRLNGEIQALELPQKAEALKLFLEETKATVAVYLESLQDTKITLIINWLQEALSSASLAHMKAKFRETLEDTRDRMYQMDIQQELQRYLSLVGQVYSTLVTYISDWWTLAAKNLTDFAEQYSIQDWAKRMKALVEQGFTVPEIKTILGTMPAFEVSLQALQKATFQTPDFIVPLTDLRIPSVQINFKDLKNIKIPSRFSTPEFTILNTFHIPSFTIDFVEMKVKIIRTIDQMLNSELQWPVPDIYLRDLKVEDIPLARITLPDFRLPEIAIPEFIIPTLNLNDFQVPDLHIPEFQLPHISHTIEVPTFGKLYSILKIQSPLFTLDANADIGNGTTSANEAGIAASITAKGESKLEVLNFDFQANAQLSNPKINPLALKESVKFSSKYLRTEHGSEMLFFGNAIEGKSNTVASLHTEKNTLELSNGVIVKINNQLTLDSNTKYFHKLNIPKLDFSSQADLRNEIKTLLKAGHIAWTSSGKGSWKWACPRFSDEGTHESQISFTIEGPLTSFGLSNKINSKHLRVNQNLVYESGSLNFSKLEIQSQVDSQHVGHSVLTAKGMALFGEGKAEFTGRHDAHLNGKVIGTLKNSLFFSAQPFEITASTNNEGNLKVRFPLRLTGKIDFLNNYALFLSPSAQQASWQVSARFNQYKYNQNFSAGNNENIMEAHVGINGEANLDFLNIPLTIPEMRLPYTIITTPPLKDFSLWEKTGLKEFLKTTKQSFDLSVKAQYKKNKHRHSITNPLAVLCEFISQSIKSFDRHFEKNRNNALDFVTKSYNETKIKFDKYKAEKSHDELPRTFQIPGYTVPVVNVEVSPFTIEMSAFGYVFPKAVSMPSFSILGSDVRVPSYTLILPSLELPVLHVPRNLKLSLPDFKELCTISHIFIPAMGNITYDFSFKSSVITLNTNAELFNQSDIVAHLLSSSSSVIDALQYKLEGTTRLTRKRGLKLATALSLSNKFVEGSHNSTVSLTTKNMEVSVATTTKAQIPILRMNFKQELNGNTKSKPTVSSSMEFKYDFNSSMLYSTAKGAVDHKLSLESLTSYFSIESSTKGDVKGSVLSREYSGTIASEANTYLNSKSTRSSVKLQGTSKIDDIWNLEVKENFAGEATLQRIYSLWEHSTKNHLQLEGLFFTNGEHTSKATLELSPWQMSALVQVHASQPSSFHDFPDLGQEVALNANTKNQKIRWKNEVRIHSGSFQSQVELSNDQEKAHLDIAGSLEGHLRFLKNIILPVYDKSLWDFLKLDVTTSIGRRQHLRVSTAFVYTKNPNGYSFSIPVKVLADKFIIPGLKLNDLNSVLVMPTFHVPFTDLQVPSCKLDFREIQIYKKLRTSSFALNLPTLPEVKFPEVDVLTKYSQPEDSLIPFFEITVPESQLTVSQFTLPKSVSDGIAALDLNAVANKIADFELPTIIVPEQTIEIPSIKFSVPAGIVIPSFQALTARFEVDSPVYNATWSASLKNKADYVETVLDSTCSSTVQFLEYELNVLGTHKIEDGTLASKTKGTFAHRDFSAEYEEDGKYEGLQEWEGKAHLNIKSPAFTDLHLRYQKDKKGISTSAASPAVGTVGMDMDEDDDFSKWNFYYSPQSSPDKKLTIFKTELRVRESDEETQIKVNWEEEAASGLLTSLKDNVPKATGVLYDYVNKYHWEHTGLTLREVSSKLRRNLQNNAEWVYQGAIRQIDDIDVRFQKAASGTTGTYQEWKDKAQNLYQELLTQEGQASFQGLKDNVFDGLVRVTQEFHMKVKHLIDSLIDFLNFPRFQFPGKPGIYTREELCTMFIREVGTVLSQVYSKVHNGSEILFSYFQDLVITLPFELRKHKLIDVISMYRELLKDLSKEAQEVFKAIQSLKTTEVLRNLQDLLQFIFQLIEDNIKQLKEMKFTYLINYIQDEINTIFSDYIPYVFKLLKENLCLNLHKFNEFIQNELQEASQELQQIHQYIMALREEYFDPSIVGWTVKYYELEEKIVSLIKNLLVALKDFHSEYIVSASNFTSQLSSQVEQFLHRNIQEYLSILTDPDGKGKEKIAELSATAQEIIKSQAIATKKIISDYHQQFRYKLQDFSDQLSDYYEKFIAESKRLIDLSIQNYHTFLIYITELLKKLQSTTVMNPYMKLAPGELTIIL
UniProt Q7Z2E3: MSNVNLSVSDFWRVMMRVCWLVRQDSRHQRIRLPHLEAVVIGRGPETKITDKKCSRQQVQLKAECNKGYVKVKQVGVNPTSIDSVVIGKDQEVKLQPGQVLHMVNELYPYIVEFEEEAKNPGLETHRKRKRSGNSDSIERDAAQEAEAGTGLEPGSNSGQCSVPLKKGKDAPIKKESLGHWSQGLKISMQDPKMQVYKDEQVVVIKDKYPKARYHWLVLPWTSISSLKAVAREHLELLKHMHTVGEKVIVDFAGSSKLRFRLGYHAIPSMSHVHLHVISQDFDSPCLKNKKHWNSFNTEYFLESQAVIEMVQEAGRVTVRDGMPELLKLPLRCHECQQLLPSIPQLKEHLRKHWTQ
UniProt Q13795: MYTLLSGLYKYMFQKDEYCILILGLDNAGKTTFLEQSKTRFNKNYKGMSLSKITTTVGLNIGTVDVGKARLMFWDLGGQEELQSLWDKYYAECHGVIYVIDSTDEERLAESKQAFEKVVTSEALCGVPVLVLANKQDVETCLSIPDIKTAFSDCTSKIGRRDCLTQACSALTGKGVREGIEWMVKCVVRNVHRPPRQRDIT
UniProt P32121, whole entry, looked up: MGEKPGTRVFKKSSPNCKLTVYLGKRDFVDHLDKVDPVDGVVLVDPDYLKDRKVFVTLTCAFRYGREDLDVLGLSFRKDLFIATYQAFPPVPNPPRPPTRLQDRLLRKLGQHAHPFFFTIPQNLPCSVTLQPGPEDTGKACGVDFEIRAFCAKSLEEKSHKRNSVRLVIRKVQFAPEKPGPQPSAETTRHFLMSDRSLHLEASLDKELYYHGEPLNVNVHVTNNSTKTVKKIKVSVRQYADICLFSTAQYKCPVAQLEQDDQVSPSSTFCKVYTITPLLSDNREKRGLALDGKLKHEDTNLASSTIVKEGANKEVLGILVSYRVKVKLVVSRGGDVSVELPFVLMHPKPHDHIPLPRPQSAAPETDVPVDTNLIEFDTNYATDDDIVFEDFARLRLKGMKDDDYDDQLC
UniProt Q9Y587: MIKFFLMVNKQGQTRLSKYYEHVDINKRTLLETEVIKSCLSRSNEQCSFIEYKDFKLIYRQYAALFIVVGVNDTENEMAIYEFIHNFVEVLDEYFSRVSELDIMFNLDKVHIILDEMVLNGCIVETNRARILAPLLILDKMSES

Columns and labels:
Experiment in all cases: log2 fold change, soluble protein after heating vs DMSO (PISA); higher = thermal stabilisation; K562 lysate, 10 uM; active = over 0.2 and 3.5 SD of the protein, either way, in both replicates (recomputed)
[1] = compound: C1=CC=C(C=C1)[C@H](COC2=CC3=C(C=C2)NC(=O)N3)NC(=O)C4=CC=CN(C4=O)CC5=CC(=C(C=C5)F)F
In short: (§1)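 K562 pellets were dounce-homogenised in PBS pH 7.4 with 1 mM MgCl2, and the crude extract at 1 mg/mL protein was treated with 10 μM compound for 30 min. Aliquots were heated for 3 min across 48°C-58°C, pooled, and brought to 0.5% NP-40 at 4°C; soluble protein was the supernatant after 21,000xg for 90 min. Soluble protein was quantified by TMTpro 16plex LC-MS/MS with channel sums equalised, and reported as log2 fold change in thermal stability against DMSO controls, with values from duplicates.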

[2] = compound: CC1=C(SC2=C1C(=N[C@H](C3=NN=C(N32)C)CC(=O)N)C4=CC=C(C=C4)Cl)C
In short: as §1

[3] = compound: CC1=C2C(=CC=C1)N=C(N(C2=O)C3=CC=CC=C3C)CN4C=NC5=C(N=CN=C54)N
In short: as §1

[4] = compound: Cc1sc2c(c1C)C(c1ccc(Cl)cc1)=N[C@@H](CC(=O)OC(C)(C)C)c1nnc(C)n1-2
In short: as §1

[5] = compound: c1ccc([C@@H]2C[C@H]2NC2CCNCC2)cc1
In short: as §1

Measured: log2 fold change

APEX1 (UniProt P27695)
inactive: [1] 0.055 | [2] 0.007 | [3] -0.007 | [4] 0.086 | [5] 0.131

API5 isoform 2 (UniProt Q9BZZ5)
inactive: [1] 0.047 | [2] -0.026 | [3] 0.01 | [4] 0.003 | [5] 0.14

ARRDC1 (UniProt Q8N5I2)
inactive: [1] -0.003 | [2] -0.001 | [3] -0.056 | [4] 0.09 | [5] -0.125

ARPC1A (UniProt Q92747)
inactive: [1] 0.03 | [2] -0.041 | [3] 0.017 | [4] -0.029 | [5] 0.01

APOB (UniProt P04114)
inactive: [1] -0.009 | [2] 0.039 | [3] 0.023 | [4] -0.168 | [5] -0.109

APTX (UniProt Q7Z2E3)
inactive: [1] 0.008 | [2] -0.008 | [3] -0.067 | [4] -0.054 | [5] 0.036

ARFRP1 (UniProt Q13795)
inactive: [1] 0.017 | [2] -0.029 | [3] -0.005 | [4] 0.029 | [5] -0.041

ARCN1 (UniProt P48444)
inactive: [1] -0.003 | [2] 0.018 | [3] 0.003 | [4] -0.011 | [5] -0.014

ARRB2 isoform 3 (UniProt P32121)
inactive: [1] -0.043 | [2] 0.008 | [3] -0.036 | [4] -0.011 | [5] -0.037

AP4S1 (UniProt Q9Y587)
inactive: [1] 0.003 | [2] -0.005 | [3] 0.101 | [4] 0.017 | [5] -0.029

ARMC10 isoform 2 (UniProt Q8N2F6)
inactive: [4] -0.056

APBA1 (UniProt Q02410)
inactive: [1] -0.045 | [2] -0.036 | [5] 0.055

Retrieved one by one from the entries so far, two records:
AP4S1 (UniProt Q9Y587)
inactive: [1] 0.003 | [2] -0.005 | [3] 0.101 | [4] 0.017 | [5] -0.029

ARCN1 (UniProt P48444)
inactive: [1] -0.003 | [2] 0.018 | [3] 0.003 | [4] -0.011 | [5] -0.014
